These are yes or no findings as the source states them, for the method shown.
Target: T1, human BMP9/10 chimeric protein B (human) (UniProt Q9UK05)
T1 sequence 1: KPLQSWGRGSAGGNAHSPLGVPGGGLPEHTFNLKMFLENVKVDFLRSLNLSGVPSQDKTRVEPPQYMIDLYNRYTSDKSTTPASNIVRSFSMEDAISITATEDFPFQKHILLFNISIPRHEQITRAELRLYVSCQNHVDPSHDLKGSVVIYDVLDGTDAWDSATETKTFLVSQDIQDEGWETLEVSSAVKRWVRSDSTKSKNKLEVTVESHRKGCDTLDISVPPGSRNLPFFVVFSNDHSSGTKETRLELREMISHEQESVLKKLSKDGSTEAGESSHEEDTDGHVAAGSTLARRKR
T1 sequence 2: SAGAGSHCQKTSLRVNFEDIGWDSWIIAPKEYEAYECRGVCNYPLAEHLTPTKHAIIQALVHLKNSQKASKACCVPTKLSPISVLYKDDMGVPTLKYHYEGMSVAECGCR
Assay: condition: 1000 ng/mL antibody; absorbance less than 1; solid-phase antigen ELISA on immobilized chimeric protein (3 ug/mL)

B1: 3C7-3-1 antibody (antibody, V domains shown)
VH: EVQLQQSGPELVKPGASVKISCKASGNSFTGYYMNWMKQSPEKSLEWIGEINPSTGATTYNQKFKAKATLTVDKSSSTAYMQLKSLTSEDFAVYYCTRRAAYYFDYWGQGTTLTVSS
VL: QIVLTQSPALMSASPGEKVTMTCSASSSVNYMYWYQQKPRSSPKPWIYLTSNLASGVPARFSGSGSGTSYSLTISSMEAEDAATYYCQQWSSNPRTFGGGTKLEIK
notes: Mouse IgG1, kappa; also called recombinant 3C7-3-1 antibody (mouse IgG1, kappa)
  binding: no binding
